The test addresses CD74 (human (endogenous in CD8+NKG7+ T cells)) (UniProt P04233). Description: co-IP; co-immunoprecipitation of CD74 and CD44 in CD8+NKG7+ T cells; bait and conditions not told.

Protein sequences, listed by entry. Tags and fused reporters are not part of them. Residues count along the entry.
UniProt P04233: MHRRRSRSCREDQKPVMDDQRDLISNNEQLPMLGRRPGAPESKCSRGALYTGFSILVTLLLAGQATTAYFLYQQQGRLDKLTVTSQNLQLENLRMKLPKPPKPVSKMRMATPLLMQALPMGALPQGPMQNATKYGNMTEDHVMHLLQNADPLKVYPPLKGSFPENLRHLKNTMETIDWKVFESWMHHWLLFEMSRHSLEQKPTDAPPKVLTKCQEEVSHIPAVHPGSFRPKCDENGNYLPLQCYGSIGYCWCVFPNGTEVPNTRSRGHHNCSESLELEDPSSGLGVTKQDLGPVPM
UniProt P16070, residues 21-742: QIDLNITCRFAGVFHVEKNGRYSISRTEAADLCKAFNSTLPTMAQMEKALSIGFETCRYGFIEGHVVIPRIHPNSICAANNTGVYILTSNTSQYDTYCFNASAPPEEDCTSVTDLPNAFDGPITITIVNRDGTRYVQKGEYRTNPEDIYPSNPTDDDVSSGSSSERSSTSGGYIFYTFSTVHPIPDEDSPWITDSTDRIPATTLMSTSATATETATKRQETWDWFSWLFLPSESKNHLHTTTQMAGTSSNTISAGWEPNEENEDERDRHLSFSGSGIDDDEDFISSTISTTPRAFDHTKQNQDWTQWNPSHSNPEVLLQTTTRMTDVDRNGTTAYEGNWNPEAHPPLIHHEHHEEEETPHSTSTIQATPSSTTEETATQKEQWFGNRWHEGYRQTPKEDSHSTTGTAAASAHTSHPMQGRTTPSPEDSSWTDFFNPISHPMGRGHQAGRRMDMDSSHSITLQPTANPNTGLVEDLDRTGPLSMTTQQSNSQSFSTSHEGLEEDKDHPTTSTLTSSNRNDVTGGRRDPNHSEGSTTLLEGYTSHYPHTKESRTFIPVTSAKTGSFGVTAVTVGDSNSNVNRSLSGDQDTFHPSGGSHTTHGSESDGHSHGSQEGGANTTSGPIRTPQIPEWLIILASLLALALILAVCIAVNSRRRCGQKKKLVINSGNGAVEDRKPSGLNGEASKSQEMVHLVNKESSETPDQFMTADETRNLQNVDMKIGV

The record followed here is article PMC12318824.

These are yes or no findings as the source states them, for the method shown. In cells and extracts the contact can be indirect. Some binding calls cover weakened binding; strength is not graded here.

With CD44 (from UniProt P16070 21-742), the binding result is listed as “binds”.
